# Source: PubChem BioAssay AID651768 (National Center for Advancing Translational Sciences (NCATS), 2012)
# Protein sequences, listed by entry. Tags and fused reporters are not part of them.
# UniProt Q14191, whole entry, looked up: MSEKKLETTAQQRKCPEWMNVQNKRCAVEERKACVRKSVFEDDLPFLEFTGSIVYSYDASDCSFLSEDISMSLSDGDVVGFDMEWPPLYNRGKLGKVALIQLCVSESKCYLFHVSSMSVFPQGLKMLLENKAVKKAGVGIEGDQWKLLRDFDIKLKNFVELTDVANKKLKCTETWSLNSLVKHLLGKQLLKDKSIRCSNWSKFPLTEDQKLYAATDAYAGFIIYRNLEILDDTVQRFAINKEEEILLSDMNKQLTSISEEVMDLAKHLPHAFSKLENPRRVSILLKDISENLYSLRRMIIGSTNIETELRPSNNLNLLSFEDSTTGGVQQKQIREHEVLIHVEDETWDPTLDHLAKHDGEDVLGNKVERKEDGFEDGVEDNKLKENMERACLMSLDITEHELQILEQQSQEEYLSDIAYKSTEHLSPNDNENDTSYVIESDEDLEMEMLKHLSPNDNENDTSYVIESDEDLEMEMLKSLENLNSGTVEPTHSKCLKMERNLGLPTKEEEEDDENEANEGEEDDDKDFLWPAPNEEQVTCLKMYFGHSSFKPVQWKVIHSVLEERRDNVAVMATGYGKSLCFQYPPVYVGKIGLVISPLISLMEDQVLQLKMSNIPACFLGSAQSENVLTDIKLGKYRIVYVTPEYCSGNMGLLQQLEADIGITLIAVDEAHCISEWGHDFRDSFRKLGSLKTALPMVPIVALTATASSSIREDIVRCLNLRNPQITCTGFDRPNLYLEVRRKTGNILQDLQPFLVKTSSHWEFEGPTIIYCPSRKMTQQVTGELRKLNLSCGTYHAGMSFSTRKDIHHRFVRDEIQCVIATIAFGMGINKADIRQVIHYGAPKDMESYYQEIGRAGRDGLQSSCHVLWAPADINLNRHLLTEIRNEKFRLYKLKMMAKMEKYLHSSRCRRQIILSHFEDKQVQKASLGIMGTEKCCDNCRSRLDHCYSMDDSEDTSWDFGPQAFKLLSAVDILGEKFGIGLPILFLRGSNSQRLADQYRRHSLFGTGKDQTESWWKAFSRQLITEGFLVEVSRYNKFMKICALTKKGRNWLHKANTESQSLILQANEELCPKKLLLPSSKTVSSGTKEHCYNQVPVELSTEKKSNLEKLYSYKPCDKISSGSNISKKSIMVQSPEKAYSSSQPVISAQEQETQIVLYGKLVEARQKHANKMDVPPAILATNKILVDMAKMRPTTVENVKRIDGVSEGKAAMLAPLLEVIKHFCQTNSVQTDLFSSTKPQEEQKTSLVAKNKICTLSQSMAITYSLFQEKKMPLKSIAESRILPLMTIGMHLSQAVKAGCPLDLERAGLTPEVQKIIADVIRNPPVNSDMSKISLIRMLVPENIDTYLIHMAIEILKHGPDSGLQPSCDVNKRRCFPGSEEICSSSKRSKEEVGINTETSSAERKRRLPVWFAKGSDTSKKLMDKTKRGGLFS
# In all, about 360,000 compounds went through this assay and about 1,700 (0.47%) were called active. Inconclusive means that the source gave no clear call. Such entries were picked first, then a sample of the others. The call rests on the fitted dose curve; in most records, active means well fitted inhibition curve with a large enough effect; inconclusive means small, poorly fitted or top-dose-only effect; inactive means no such curve, though single readings can be large or run the other way. Potencies beside an inconclusive call are fits to weak or partial responses and may not hold up.
# Biological target: Bifunctional 3'-5' exonuclease/ATP-dependent helicase WRN (Homo sapiens) (UniProt Q14191)
# Test: qHTS for Inhibitors of WRN Helicase; further: nearly all actives have a fitted effect of over 55% in size
# Conditions: WRN helicase unwinding, fluorescent forked duplex, kinetic; activity change, negative = inhibition: at 114 µM (top of the series) unless noted
# Method in brief: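 WRN at 20 nM final preincubated with compound 15 min at room temperature; reaction started with 100 nM fluorophore/quencher forked duplex oligonucleotide and 2 mM ATP final. Unwinding followed kinetically by red fluorescence (ex 525, em 598 nm).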
# On the % scale 0 is the no-effect control and ±100 the full control effect; potency means the concentration at half of the fitted maximal effect.
Compound,"activity change, negative = inhibition",Potency
O=C(c1cc(-c2ccc(F)cc2)nc2ccccc12)N1CCC1,inactive: 9.46%,–
CCN(CC)c1ccc2nc3ccccc3[n+](CC)c2c1,–,"inconclusive: 79.4 µM [inhibitor, partial curve]"
CCOC(=O)C1=C(C)N=c2s/c(=C/c3cccc([N+](=O)[O-])c3O)c(=O)n2C1c1ccccc1 (stereo not given),–,"inconclusive: 17.8 µM [inhibitor, partial curve]"
CC(C)(C)NCCOCCOc1ccccc1-c1ccccc1,–,"inconclusive: 25.1 µM [inhibitor, full curve]"
Cn1c(=O)c([N+](=O)[O-])c(Oc2ccccc2)c2ccccc21,–,"inconclusive: 50.1 µM [inhibitor, partial curve]"
COC1=C(OC)C(=O)C(Sc2ccc3ccccc3c2)=CC1=O,–,active: 20 µM
Cc1cccc(-n2ncc3c(NCc4ccco4)ncnc32)c1,–,"inconclusive: 89.1 µM [inhibitor, single point]"
CCOC(=O)c1sc(Nc2nc3cc4c(cc3s2)OCO4)cc1C,inactive: -15.5%,–
Cc1noc(NS(=O)(=O)c2ccc(N/C=C\C(=O)c3ccc4c(c3)OCO4)cc2)c1C,–,"inconclusive: 20 µM [inhibitor, partial curve]"
Cc1ccc(C2CC(=O)NC(SCC(=O)OCc3ccccc3)=C2C#N)o1 (stereo not given),–,"inconclusive: 5.01 µM [inhibitor, full curve, poor fit]"
CCCCN(C(=O)c1cc(Cl)nc2ccccc12)c1c(N)n(CCC)c(=O)[nH]c1=O,inactive: -4.85%,–
CSc1ccc(CN(C)CC(=O)NCc2ccccc2)cc1,–,"inconclusive: 89.1 µM [inhibitor, single point]"
Cc1cc(C(=O)C(C)Cl)c(C)n1Cc1ccco1 (stereo not given),–,"inconclusive: 79.4 µM [inhibitor, partial curve]"
CCN(C(=O)COC(=O)/C(C#N)=C/c1ccc(N(C)C)cc1)C1CCS(=O)(=O)C1 (stereo not given),–,"inconclusive: 25.1 µM [inhibitor, full curve]"
COc1ccc(N=C2NC(=O)/C(=C/C=C/c3ccccc3)S2)cc1,inactive: -11.2%,–
Cc1cc(CN(C)C(=O)c2cc(COc3ccc(C)c(C)c3)on2)on1,–,"inconclusive: 15.8 µM [inhibitor, partial curve, poor fit]"
CC(=O)Nc1cc(NC(C)=O)cc(C(=O)N2CCCC3CCCCC32)c1 (stereo not given),–,"inconclusive: 56.2 µM [inhibitor, partial curve]"
Cc1nn(-c2ccccc2)c(C)c1/C=C/C(=O)OCC(=O)Nc1ccc(C(N)=O)cc1,inactive: -4.95%,–
COc1cccc(C(=O)N2CCN(Cc3ccco3)CC2)c1OC,–,"inconclusive: 56.2 µM [inhibitor, partial curve]"
CCc1cccc(OCCn2nc(C(=O)O)c3ccccc3c2=O)c1,–,"inconclusive: 89.1 µM [inhibitor, single point]"
O=C(N/N=C/c1cc(Br)c(Br)o1)c1ccc2c(c1)OCCO2,–,"inconclusive: 50.1 µM [inhibitor, partial curve]"
COc1ccc(S(=O)(=O)Nc2ccc3oc4ncccc4c(=O)c3c2)cc1OC,–,"inconclusive: 39.8 µM [inhibitor, single point]"
CC1CC1c1ccc(/C=C(\C#N)C(=O)Nc2cc(Cl)ccc2Cl)o1 (stereo not given),inactive: -32.9%,–

# Random excerpt: 2 entries already listed, in no set order.
Compound,"activity change, negative = inhibition",Potency
CSc1ccc(CN(C)CC(=O)NCc2ccccc2)cc1,–,"inconclusive: 89.1 µM [inhibitor, single point]"
CCOC(=O)c1sc(Nc2nc3cc4c(cc3s2)OCO4)cc1C,inactive: -15.5%,–

# The list continues:

Compound,"activity change, negative = inhibition",Potency
CCc1noc(C)c1C(=O)Nc1sc(C(=O)N(C)C)c(C)c1C#N,–,"inconclusive: 89.1 µM [inhibitor, single point]"
COc1ccc(OC)c2nc3c(C(=O)NCCN(C)C)cccc3nc12,–,active: 12.6 µM
Cc1cc(=O)cc(C)n1-c1ccc(Br)cc1,–,active: 15.8 µM
COc1cc(C(=O)N/N=C/c2ccc(OC(=O)c3ccccc3)c(OC)c2)ccc1O,inactive: -26.4%,–
COc1ccc(OCc2nc3c4cc(OC)c(OC)cc4nc(=S)n3[nH]2)cc1,–,"inconclusive: 14.1 µM [inhibitor, full curve]"
O=C(O)c1cc(N2N=C(C(F)(F)F)/C(=C/C=C/c3ccco3)C2=O)ccc1Cl,–,active: 0.844 µM
COc1cccc(/C(O)=C/C(=O)C(=O)Nc2ccc(S(=O)(=O)NC(C)=O)cc2)c1,–,"inconclusive: 25.1 µM [inhibitor, single point]"
COc1ccc(NC(=O)CN(C)C(=O)c2cc3c(s2)CCC3)cc1,–,active: 39.8 µM
Cc1ccc(-n2c3nc(=O)[nH]c(=O)c-3cc3cc([N+](=O)[O-])ccc32)cc1,–,"inconclusive: 35.5 µM [inhibitor, single point]"
Cc1ccccc1CNC(=O)C(=O)NCCC1CCCCN1S(=O)(=O)c1cccs1 (stereo not given),inactive: -6.69%,–
CCNc1nc(NCC)n2c(SCC(=O)Nc3ccc(CC)cc3)nnc2n1,–,"inconclusive: 70.8 µM [inhibitor, partial curve]"
COc1ccc(/C=N/NC(=O)c2ccco2)cc1COc1ccc(F)cc1,inactive: -33.7%,–
O=C(O)c1cccc(S(=O)(=O)Nc2ccc3oc(=O)sc3c2)c1,–,"inconclusive: 50.1 µM [inhibitor, partial curve]"
COc1ccc(NC(=O)CNC(=O)Cn2c(C)cc3ccccc3c2=O)c(OC)c1,inactive: -16.3%,–
CSC1=NC(=O)/C(=C\c2cccc3ccccc23)S1,–,"inconclusive: 79.4 µM [inhibitor, single point]"
O=C(NCc1ccccn1)c1cc(-c2ccccc2Cl)nc2ccccc12,inactive: -4.39%,–
CC(/C=C1\SC(=S)N(NC(=O)c2ccccc2C)C1=O)=C\c1ccccc1,–,"inconclusive: 31.6 µM [inhibitor, full curve, poor fit]"
O=[N+]([O-])c1ccc(S(=O)Cc2ccccc2)c([N+](=O)[O-])c1 (stereo not given),–,active: 10 µM
CCCC/C=C1/CCC(CN(C)C)C1=O (stereo not given),–,"inconclusive: 44.7 µM [inhibitor, partial curve]"
Cc1ccc(CSc2nnc(SCC(=O)N/N=C/C=C/c3ccco3)s2)cc1,inactive: -11.2%,–
O=C(Nn1c(-c2ccc(Br)cc2)nc2ccccc2c1=O)c1cccnc1,–,"inconclusive: 28.2 µM [inhibitor, single point]"
COc1cccc2c1C(=O)c1c(O)c3c(c(O)c1C2=O)C[C@@](O)(C(=O)CO)C[C@@H]3O[C@H]1C[C@H](N)[C@@H](O)[C@H](C)O1,–,active: 56.2 µM
